This passage reports binding results from article PMC9681887.

The chains behind the UniProt entries cited, without tags or fusion partners. Where a name states a change or a piece, a line headed by the entry shows the natural chain unless it says otherwise.
UniProt P06804: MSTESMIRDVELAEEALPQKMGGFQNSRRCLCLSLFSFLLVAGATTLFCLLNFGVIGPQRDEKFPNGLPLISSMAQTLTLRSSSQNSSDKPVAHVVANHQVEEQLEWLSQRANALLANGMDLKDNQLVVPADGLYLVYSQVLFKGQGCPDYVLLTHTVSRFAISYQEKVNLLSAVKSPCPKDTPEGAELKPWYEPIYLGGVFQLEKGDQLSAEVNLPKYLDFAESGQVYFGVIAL

The target of this experiment is Flag-TNFα (UniProt P06804). The experiment can be described thus: affinity purification with mass spectrometry; TNF-RSC from Senp1-WT and Senp1-KD MEFs treated with Flag-TNFα (100 ng/ml, 5 min), isolated on anti-Flag beads, trypsin-digested on beads, duplicates; only the target purified.

Results are given in words; binding and its absence hold for the method and conditions named. Binding seen in cells or lysates may run through a third protein. These calls come from enrichment with a bait or labelling near it, and not all partners need be listed.

B1: A20 (protein, UniProt Q60769 1-775)
chain: MAEQLLPQALYLSNMRKAVKIRERTPEDIFKPTNGIIYHFKTMHRYTLEMFRTCQFCPQFREIIHKALIDRSVQASLESQKKLNWCREVRKLVALKTNGDGNCLMHAACQYMWGVQDTDLVLRKALCSTLKETDTRNFKFRWQLESLKSQEFVETGLCYDTRNWNDEWDNLVKMASADTPAARSGLQYNSLEEIHIFVLSNILRRPIIVISDKMLRSLESGSNFAPLKVGGIYLPLHWPAQECYRYPIVLGYDSQHFVPLVTLKDSGPELRAVPLVNRDRGRFEDLKVHFLTDPENEMKEKLLKEYLIVMEIPVQGWDHGTTHLINAAKLDEANLPKEINLVDDYFELVQHEYKKWQENSDQARRAAHAQNPLEPSTPQLSLMDIKCETPNCPFFMSVNTQPLCHECSERRQKNQSKLPKLNSKLGPEGLPGVGLGSSNWSPEETAGGPHSAPPTAPSLFLFSETTAMKCRSPGCPFTLNVQHNGFCERCHARQINASHTADPGKCQACLQDVTRTFNGICSTCFKRTTAEPSSSLTSSIPASCHQRSKSDPSQLIQSLTPHSCHRTGNVSPSGCLSQAARTPGDRAGTSKCRKAGCMYFGTPENKGFCTLCFIEYRENKQSVTASEKAGSPAPRFQNNVPCLGRECGTLGSTMFEGYCQKCFIEAQNQRFHEARRTEEQLRSSQHRDMPRTTQVASRLKCARASCKNILACRSEELCMECQHLSQRVGSVAHRGEPTPEEPPKQRCRAPACDHFGNAKCNGYCNECYQFKQMYG
In the case of B1, the binding result is “binds”.
